Experimental data from US4144236A (priority 1973, dated 1979).
Read-outs that look alike come from different tables or passages of the source.

How the values were obtained:
in vivo = settings: rat, sc
[1] = tested on: Longitudinal muscle preparate (guinea pig); assay: Longitudinal muscle preparate (guinea pig; Paton and Vizi)
Description: ^++++ Paton,W.D.M. and Vizi,E.S.:Br.J.Pharmac. 35, 10 (1969)

[2] = tested on: electrical stimulation induced coughing; assay: Anti-tussive activity: electrical stimulation (superior laryngeal nerve) induced coughing in cats (method of Domenjoz); format: in vivo; settings: i.v.
Description: Anti-tussive activity in cats was determined by the method of Domenjoz. Cats weighing 2.5 to 3.5 kg were anesthetized with an i.p. dose of 30 mg per kg of sodium pentobarbitone. […] The cough responses were measured by means of a Marey-tambour connected to a face mask and recorded on a smoked paper. Drugs were given intravenously in increasing doses. The effect of each dose was measured on at least five cats. The effects of the drug was calculated from the changes of amplitude of cough curves. If no coughing was produced by two successive stimulations, the dose was taken as the effective anti-tussive dose (AtD100). The anti-tussive dose (AtD50) which reduces the control response by 50% was calculated by the method of Litchfield and Wilcoxon.

[3] = tested on: citric acid aerosol induced cough; format: in vivo, Wistar rats; settings: rats; for AtD50: limits in brackets
Description: The anti-tussive activity in rats was tested by the method of Gosswald. Wistar rats weighing 130 to 180 g were placed in a plexi box (23 × 22 × 11 cm) and cough responses were elicited by citric acid aerosol (10%). The latency period of cough was measured before and after drug administration. The control latency was determined 18 hours before the drug administration. Animals with less than 60 second control latency were used for the experiments. […] Each animal was exposed to citric acid aerosol for a period of 3 minutes 30 seconds and 60 minutes after drug administration. […]. Ten animals were used at each dose level. The anti-tussive dose (AtD50) was calculated according to Litchfield and Wilcoxon. The drugs were administered by subcutaneous and oral routes.

Question: What does the source list for `CN1CC[C@]23c4c5ccc(O)c4O[C@H]2[C@@H](O)C=C[C@H]3[C@H]1C5` [Morphine]?
Answer: LD50 (in vivo): 310 mg/kg; Longitudinal muscle preparate (guinea pig) LD50 [1]: 46.0 mg/kg; Ratio codeine/drug (AtD50) [2]: 2.38; Ratio codeine/drug (AtD50) ([3]; oral): 1.35; AtD50 ([3]; oral): 74.0 (51.03-107.30) mg/kg oral; Ratio codeine/drug (AtD50) ([3]; s.c.): 6.33; AtD50 ([3]; s.c.): 3.00 (1.84-4.25) mg/kg s.c.
